Test results as given in article PMC9239096.
No signal at the amounts used counts as a negative. Tags and fusion partners may be left off the protein sequences shown.

Tested on: T1, KdpE-MBP (Sinorhizobium fredii CCBAU45436 (SF4))
T1 sequence (looked up): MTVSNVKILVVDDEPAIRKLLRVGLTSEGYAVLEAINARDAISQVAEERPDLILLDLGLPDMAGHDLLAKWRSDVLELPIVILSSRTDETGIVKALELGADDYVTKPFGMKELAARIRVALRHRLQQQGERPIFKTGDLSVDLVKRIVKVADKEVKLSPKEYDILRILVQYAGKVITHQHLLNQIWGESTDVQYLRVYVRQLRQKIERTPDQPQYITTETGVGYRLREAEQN
Test: EMSA
Conditions: 5-50 uM protein, 12.3 nM probe; 25 mM Tris-HCl pH 8.0, 0.5 mg/mL BSA, 0.1 mg/mL sonicated salmon sperm DNA, 5% glycerol, 0.05% DDM; 10 uL, 20 C, 30 min; 6% native PAGE; recombinant protein; residues 1-232; protein details: MBP (pMAL-c5x, N-terminal, with GGGGS linker); label: Cy5 (5' end, primer); probe letters rebuilt from the primers and the genome

Sequence	binding result
GCGGCCGCCTTTTGAAGGACGAACCATGAGGGATTGAAACGATCAGCCGCCACAGGATTTCCACAATGCCGATTCATCTGATGCAGACTTCCGCCCCACGACATCTCCGCTTGGTCGTCGTCAGGACAGAAATCTCCGGCGAGGAGCGCTCTGCACCTGCCTCTGCGCGAGCGGCAAGGCATATGGCGCAACGCCCGGCTAAAATCAATGCTTCTTGCGCATGCCGACCTCGGCGGCACCTCACGTCTCGTTCCGAACGGGGCCGGACCCTACTTCAAAATTCCCGCAAGCGGTATGCTCTTGTGAAAGAAAAGCATGGGCTCCAAAGGCGACGCACCGAGGGTC (double strand) [Probe_kup]	no binding
GGCTGTTTTTTCCTTGGCTCCGGCGATTGCGTCCTCTCCGCTGCGCGAAGGCCCGTTTGGCACACGTTAAACGGGCTGCATCATCTTATTCCTTCTTCAACTACGATCAAAGGAACCAACAAGTTTCGGCGCAGTTTCCTGGTGATGCGCAGCGCTTCGACACGAATTTTCCGATATTTCAGTTGCATCCGATGGACGCTTTGAACGATGTAATGAGCCGGACTCGCCCGGCGGGCATGCGACCCGGCGACACCCTTGCGGGATTGCGCTTCTCGTGGCGCTGGCGCGGGTTCTTTCGACAGCGCCGTGCGTCTTTTCAGGCGAAAGGTCGCTGTCGCACTTGATCTGCTGCATGCTCTCATTCCTTAGATCGATTCCGATTTAAGGAAACAGGCAGCAGGGCCCTCGTTCGACCCGTGTTGCTCCAGGTATTGCCC (double strand) [Probe_trk]	no binding
